Laboratory results taken from publication PMC3206849.
Results are given in words; binding and its absence hold for the method and conditions named. Binding seen in cells or lysates may run through a third protein. Some binding calls cover weakened binding; strength is not graded here.

Protein sequences, listed by entry. Tags and fused reporters are not part of them. Lines headed by an entry give the natural chain unless they say otherwise; changes in a name come on top. Chains listed by the source or under a name are the forms on record and can include a tag or linker.
UniProt P28652: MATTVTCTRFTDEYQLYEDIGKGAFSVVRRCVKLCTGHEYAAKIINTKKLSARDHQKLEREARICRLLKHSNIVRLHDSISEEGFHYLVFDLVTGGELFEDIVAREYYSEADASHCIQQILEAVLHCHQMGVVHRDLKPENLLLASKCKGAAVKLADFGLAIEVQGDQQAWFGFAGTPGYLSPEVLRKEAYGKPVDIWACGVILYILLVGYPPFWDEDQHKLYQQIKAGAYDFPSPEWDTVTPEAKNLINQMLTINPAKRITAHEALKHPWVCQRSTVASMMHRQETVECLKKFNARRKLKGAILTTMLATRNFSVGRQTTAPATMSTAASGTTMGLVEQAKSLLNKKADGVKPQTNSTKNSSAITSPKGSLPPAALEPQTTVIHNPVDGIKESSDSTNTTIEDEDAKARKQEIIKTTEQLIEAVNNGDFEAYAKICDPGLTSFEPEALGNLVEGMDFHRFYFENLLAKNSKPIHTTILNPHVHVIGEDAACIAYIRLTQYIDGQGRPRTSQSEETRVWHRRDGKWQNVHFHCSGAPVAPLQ
UniProt Q6PHZ2: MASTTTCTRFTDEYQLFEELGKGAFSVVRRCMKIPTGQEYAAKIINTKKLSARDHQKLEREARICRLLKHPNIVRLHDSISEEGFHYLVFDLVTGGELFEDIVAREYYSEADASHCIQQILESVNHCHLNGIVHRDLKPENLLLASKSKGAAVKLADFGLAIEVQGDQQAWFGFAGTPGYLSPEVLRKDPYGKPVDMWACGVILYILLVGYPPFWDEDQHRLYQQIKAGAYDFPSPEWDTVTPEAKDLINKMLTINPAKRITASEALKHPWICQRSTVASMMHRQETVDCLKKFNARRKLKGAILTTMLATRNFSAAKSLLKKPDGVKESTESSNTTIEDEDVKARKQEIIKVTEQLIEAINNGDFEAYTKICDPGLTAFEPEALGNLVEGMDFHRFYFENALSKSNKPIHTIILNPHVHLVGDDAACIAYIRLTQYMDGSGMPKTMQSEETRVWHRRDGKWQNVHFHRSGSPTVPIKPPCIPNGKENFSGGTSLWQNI
UniProt Q04447: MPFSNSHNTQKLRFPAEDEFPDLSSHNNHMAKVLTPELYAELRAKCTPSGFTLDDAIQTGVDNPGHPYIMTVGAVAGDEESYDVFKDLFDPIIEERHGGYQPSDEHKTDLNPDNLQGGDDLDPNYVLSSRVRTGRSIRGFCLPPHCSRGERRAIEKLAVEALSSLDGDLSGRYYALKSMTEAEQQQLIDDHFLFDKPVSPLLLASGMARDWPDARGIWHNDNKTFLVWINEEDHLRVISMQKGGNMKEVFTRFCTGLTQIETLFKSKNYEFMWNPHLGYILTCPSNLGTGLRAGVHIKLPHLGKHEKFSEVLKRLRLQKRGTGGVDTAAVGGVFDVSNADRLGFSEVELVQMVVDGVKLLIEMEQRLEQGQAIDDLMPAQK
UniProt P29391: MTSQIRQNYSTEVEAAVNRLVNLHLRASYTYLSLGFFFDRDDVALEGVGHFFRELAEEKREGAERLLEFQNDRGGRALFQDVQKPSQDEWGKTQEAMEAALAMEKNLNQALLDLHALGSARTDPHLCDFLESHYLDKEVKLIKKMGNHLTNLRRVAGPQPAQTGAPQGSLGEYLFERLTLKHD
UniProt P10922: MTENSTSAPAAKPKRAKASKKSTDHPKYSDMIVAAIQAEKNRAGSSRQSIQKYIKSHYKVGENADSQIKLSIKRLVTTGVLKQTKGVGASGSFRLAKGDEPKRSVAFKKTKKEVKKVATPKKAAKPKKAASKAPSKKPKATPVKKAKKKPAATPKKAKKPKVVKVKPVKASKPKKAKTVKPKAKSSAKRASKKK
Isoform Alpha-2 of Guanine nucleotide-binding protein G(o) subunit alpha (P18872-2, form named): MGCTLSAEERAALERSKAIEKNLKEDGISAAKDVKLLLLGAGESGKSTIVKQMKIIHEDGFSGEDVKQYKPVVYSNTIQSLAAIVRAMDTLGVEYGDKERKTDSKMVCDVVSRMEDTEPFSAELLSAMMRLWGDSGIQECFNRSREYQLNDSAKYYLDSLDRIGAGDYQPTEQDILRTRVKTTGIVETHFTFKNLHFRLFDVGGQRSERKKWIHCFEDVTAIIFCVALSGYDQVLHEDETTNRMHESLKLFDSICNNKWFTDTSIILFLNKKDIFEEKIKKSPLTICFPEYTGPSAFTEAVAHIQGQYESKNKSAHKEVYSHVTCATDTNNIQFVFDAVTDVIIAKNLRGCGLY
UniProt Q8BTI8: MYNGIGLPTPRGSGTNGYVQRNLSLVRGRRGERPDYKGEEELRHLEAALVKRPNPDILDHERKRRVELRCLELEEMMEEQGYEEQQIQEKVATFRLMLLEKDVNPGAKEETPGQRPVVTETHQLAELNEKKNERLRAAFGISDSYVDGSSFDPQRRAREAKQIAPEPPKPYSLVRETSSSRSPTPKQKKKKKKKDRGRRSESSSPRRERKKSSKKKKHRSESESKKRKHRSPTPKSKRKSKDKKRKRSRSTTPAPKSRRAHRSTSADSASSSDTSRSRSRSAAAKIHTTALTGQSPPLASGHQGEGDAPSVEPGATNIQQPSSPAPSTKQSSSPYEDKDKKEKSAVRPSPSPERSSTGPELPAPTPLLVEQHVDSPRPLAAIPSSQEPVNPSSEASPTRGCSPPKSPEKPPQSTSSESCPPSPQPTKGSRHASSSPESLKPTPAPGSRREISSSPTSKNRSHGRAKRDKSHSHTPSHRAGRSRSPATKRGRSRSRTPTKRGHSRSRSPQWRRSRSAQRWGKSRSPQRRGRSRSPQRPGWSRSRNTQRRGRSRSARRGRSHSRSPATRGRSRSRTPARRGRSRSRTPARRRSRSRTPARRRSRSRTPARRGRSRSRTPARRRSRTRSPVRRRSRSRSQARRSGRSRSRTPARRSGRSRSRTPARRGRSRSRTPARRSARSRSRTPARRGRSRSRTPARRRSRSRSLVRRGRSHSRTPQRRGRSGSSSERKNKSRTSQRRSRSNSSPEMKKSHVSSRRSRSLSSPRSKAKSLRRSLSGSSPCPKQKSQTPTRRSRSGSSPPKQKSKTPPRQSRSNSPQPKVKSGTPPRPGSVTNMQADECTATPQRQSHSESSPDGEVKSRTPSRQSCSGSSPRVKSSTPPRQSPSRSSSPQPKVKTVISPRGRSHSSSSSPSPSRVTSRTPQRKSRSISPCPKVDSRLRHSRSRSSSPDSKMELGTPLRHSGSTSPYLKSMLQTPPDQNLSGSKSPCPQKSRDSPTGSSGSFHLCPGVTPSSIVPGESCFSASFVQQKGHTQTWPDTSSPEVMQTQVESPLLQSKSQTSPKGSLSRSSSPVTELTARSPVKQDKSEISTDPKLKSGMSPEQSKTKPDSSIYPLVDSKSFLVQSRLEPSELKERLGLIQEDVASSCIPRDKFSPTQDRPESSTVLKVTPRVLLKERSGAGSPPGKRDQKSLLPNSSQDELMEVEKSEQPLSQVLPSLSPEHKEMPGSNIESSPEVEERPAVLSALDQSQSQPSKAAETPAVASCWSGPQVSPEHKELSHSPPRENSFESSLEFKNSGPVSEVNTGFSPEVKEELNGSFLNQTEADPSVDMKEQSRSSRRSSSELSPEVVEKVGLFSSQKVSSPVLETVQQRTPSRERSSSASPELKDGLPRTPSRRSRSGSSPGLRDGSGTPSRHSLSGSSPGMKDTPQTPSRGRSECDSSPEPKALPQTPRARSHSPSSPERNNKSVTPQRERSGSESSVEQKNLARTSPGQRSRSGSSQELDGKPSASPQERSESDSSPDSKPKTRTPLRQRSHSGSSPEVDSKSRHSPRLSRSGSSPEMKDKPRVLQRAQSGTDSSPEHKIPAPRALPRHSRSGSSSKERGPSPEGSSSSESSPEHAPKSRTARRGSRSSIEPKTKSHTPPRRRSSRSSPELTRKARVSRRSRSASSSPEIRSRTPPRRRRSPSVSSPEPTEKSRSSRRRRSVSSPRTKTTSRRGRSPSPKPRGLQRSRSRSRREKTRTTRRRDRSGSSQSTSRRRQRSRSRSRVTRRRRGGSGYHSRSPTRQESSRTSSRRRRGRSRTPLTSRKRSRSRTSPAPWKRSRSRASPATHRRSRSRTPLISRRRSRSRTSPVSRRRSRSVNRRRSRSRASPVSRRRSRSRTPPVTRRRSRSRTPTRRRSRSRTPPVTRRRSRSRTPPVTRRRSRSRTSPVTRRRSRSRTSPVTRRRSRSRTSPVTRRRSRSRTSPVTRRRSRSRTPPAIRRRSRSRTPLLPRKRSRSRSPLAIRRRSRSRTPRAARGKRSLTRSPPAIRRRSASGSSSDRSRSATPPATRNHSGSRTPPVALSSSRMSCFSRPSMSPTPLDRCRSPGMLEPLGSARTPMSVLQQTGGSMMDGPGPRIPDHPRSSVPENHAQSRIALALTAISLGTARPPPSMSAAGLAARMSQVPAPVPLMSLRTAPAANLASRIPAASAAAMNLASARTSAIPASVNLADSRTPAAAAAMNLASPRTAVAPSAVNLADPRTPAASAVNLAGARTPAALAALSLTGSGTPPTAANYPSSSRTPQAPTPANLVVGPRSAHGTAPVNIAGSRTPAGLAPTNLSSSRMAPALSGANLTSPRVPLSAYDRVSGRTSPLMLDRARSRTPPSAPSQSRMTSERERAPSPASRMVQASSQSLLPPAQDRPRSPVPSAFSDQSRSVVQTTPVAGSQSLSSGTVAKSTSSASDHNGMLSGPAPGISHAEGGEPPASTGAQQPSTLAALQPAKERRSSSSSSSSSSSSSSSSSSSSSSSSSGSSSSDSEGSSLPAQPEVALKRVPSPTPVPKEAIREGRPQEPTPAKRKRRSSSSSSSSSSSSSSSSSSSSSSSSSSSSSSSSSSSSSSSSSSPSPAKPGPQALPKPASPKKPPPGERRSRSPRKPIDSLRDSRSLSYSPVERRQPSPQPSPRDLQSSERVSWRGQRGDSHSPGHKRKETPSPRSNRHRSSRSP
UniProt P46460: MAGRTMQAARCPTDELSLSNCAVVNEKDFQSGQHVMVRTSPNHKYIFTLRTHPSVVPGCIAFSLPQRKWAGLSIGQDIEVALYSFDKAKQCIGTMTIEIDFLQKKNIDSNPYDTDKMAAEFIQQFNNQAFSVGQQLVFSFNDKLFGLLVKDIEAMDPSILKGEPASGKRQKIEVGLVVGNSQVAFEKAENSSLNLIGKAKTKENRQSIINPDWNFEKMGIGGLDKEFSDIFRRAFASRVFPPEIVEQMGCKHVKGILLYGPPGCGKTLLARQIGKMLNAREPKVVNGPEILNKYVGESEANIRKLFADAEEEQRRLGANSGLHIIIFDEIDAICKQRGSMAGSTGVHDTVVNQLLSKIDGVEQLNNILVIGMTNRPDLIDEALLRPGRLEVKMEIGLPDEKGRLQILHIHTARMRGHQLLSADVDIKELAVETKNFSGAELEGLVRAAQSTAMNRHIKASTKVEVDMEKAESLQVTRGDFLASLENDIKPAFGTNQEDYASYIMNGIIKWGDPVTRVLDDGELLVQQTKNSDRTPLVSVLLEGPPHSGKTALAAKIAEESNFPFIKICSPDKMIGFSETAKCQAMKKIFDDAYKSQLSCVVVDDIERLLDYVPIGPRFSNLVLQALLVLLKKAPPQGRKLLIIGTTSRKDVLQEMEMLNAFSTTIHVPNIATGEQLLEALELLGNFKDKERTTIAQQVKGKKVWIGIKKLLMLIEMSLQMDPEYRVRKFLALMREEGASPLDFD

Biological target: Major prion protein, disease-associated isoform PrP^Sc in scrapie-associated fibrils (SAF) (mouse (endogenous in brain)) (UniProt P04925)
Experiment: co-sedimentation

Row | Molecule | binding
1 | Calcium/calmodulin dependent kinase type II β-chain (from UniProt P28652 1-542) (enzyme) | no binding
2 | Calcium/calmodulin dependent kinase type II δ-chain (from UniProt Q6PHZ2 1-499) (enzyme) | no binding
3 | Creatine kinase B-type (from UniProt Q04447 1-381) | binds
4 | Ferritin (light chain 1) (from UniProt P29391 1-183) | no binding
5 | Histone H1.0 (from UniProt P10922 1-194) | binds
6 | Isoform Alpha-2 of Guanine nucleotide-binding protein G(o) subunit alpha (from UniProt P18872-2 1-354) | binds
7 | Na+/K+ ATPase subunit α2 (from UniProt Q6PIE5 1-1020) | binds
8 | Pro low-density lipoprotein receptor-related protein 1 (from UniProt Q91ZX7 20-4545) | binds
9 | Serine arginine repetitive matrix protein 2 (from UniProt Q8BTI8 1-2703) | binds
10 | Vesicle-fusing ATPase (from UniProt P46460 1-744) | binds
11 | Isoform CNPII of 2′,3′-cyclic-nucleotide 3′-phosphodiesterase (enzyme, UniProt P16330-1 1-420) MNTSFTRKSHTFLPKLFFRKMSSSGAKEKPELQFPFLQDEDTVATLHECKTLFILRGLPGSGKSTLARLILEKYHDGTKMVSADAYKIIPGSRADFSEAYKRLDEDLAGYCRRDIRVLVLDDTNHERERLDQLFEMADQYQYQVVLVEPKTAWRLDCAQLKEKNQWQLSADDLKKLKPGLEKDFLPLYFGWFLTKKSSETLRKAGQVFLEELGNHKAFKKELRHFISGDEPKEKLELVSYFGKRPPGVLHCTTKFCDYGKAAGAEEYAQQEVVKRSYGKAFKLSISALFVTPKTAGAQVVLTDQELQLWPSDLDKPSASEGLPPGSRAHVTLGCAADVQPVQTGLDLLDILQQVKGGSQGEAVGELPRGKLYSLGKGRWMLSLTKKMEVKAIFTGYYGKGKPVPIHGSRKGGAMQICTII | binds
12 | Isoform 1 of Dynamin 1 (protein, UniProt P39053 1-867) MGNRGMEDLIPLVNRLQDAFSAIGQNADLDLPQIAVVGGQSAGKSSVLENFVGRDFLPRGSGIVTRRPLVLQLVNSTTEYAEFLHCKGKKFTDFEEVRLEIEAETDRVTGTNKGISPVPINLRVYSPHVLNLTLVDLPGMTKVPVGDQPPDIEFQIRDMLMQFVTKENCLILAVSPANSDLANSDALKIAKEVDPQGQRTIGVITKLDLMDEGTDARDVLENKLLPLRRGYIGVVNRSQKDIDGKKDITAALAAERKFFLSHPSYRHLADRMGTPYLQKVLNQQLTNHIRDTLPGLRNKLQSQLLSIEKEVDEYKNFRPDDPARKTKALLQMVQQFAVDFEKRIEGSGDQIDTYELSGGARINRIFHERFPFELVKMEFDEKELRREISYAIKNIHGIRTGLFTPDMAFETIVKKQVKKIREPCLKCVDMVISELISTVRQCTKKLQQYPRLREEMERIVTTHIREREGRTKEQVMLLIDIELAYMNTNHEDFIGFANAQQRSNQMNKKKTSGNQDEILVIRKGWLTINNIGIMKGGSKEYWFVLTAENLSWYKDDEEKEKKYMLSVDNLKLRDVEKGFMSSKHIFALFNTEQRNVYKDYRQLELACETQEEVDSWKASFLRAGVYPERVGDKEKASETEENGSDSFMHSMDPQLERQVETIRNLVDSYMAIVNKTVRDLMPKTIMHLMINNTKEFIFSELLANLYSCGDQNTLMEESAEQAQRRDEMLRMYHALKEALSIIGDINTTTVSTPMPPPVDDSWLQVQSVPAGRRSPTSSPTPQRRAPAVPPARPGSRGPAPGPPPAGSALGGAPPVPSRPGASPDPFGPPPQVPSRPNRAPPGVPSLGAWRLNSPQGKHENRAGKARL | binds
13 | Apolipoprotein E (protein, UniProt P08226 19-311) EGEPEVTDQLEWQSNQPWEQALNRFWDYLRWVQTLSDQVQEELQSSQVTQELTALMEDTMTEVKAYKKELEEQLGPVAEETRARLGKEVQAAQARLGADMEDLRNRLGQYRNEVHTMLGQSTEEIRARLSTHLRKMRKRLMRDAEDLQKRLAVYKAGAREGAERGVSAIRERLGPLVEQGRQRTANLGAGAAQPLRDRAQAFGDRIRGRLEEVGNQARDRLEEVREHMEEVRSKMEEQTQQIRLQAEIFQARLKGWFEPIVEDMHRQWANLMEKIQASVATNPIITPVAQENQ | binds
14 | TBC1 domain family, member 10b (protein, UniProt Q8BHL3 1-798) METGPAPLVAPPRRHGAPAAPSPPPRGSRAGSHLVVEPGPPVTTATSAPVELVAPGEARPACVPGSSQTSASTPTTATSSTVVMLTLEASPEAAKTQEFPAPAAETGAETSVALALGTDTQKTEEVRASPVPGPGTPTRTPSRMAPGALTAKPPLAPKPGTTVASGVTARGGVGQVAGGHEAATSASAGSVPEDPSGPVTGPPGTCEAPAPTPVAVVTVTPAPEPVENFQDLGSTSSLGPGISGPRGQAPDTLSYLDSVSLMSGTLESLPDDVSSMGSDSEINGMALRKTDKYGFLGGSQYSGSLESSIPVDVARQRELKWLEMFSNWDKWLSRRFQKVKLRCRKGIPSSLRAKAWQYLSNSKELLEQNPGKFEELERAAGDPKWLDVIEKDLHRQFPFHEMFAARGGHGQQDLYRILKAYTIYRPDEGYCQAQAPVAAVLLMHMPAEQAFWCLVQICDKYLPGYYSAGLEAIQLDGEIFFALLRRVSPLAHRHLRRQRIDPVLYMTEWFMCIFARTLPWASVLRVWDMFFCEGVKIIFRVALVLLRHTLGSVEKLRSCQGMYETMEQLRNLPQQCMQEDFLVHEVTNLPVTEAWIERENAAQLKKWRETRGELQYRPSRRLHGSRAIHEERRRQQPPLGPSSSLLSLPSLKSRGSRAVGGAPSPPPPVRRASAGPVPGAVVIAEGLHPSLPSPTGNSTPLGTSKEIRRQEKERQKQEKDREKERQRQEKERERQEKERQKWEKEQEKEQQKQEKERQKLEKKGQGRKLSLRRRADGPPASHDGGDRSAAEARQDAYF | binds
